For 1 molecule, binding results are on record in article PMC8581162.

Protein sequences, listed by entry. Tags and fused reporters are not part of them.
UniProt P27741: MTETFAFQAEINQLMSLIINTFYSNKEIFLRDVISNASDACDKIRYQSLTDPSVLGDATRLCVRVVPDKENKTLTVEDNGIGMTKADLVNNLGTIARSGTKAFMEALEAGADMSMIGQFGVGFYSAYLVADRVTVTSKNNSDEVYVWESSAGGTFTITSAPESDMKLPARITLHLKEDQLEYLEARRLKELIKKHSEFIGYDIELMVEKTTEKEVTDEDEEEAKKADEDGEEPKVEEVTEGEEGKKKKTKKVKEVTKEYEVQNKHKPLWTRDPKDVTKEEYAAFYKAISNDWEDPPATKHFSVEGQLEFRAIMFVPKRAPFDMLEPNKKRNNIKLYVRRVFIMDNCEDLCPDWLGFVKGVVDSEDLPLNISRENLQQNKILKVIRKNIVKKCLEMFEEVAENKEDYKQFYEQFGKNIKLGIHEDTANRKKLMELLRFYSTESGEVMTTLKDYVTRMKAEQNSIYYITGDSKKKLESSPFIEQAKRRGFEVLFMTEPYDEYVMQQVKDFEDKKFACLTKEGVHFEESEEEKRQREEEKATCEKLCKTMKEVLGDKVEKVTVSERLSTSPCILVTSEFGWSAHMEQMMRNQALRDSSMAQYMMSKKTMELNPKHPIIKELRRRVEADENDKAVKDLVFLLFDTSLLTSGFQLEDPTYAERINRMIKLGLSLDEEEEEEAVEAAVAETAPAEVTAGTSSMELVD

Results are given in words; binding and its absence hold for the method and conditions named. Binding seen in cells or lysates may run through a third protein. Some results given as binding are weak or reduced against the parent protein; the word gives no strength.

This assay concerns the target Leishmania amazonensis Hsp90 (LHsp90; Hsp83, the ortholog of Hsp90 in trypanosomatids) (L. amazonensis (endogenous in L. amazonensis amastigotes, procyclic and metacyclic promastigotes)) (UniProt P27741). Description: co-IP; 20 ug of telomerase-positive (DEAE semi-purified) extracts of Am, PP and MP; polyclonal anti-LbHsp90 or anti-LaTERT serum on DynaBeads protein A; 37 C for 2 h in IP buffer (25 mM TRIS-HCl pH 8.0, 2 mM EDTA, 10% glycerol, protease inhibitors); western blot with anti-LbHsp90 and anti-LaTERT sera. In general terms: Immunoblotting shows a protein as a band on a membrane.

B1: Leishmania amazonensis telomerase reverse transcriptase protein (TERT) (protein, UniProt Q2NNR6 1-1447)
chain: MSASFPSIPGFAGPLSLKAFLEEYFGLHLTFAAETASPSPRAAATAETPSAAGFRALRDVVLPPNQSFLVVVYVALHASSSPPPTTAHASPTPATPDPGCAAPPTGLGRLRQPLAHQTAVSTAHDTCVTRCNPSDRQNPFCLSSSSTGKNGNARSPWCASASWLLYTNTSHRPFTDALLRHPWRASFSACLGPAAMGFIEMYCPIVLQLEAMAGGVQVIGPALKHVALETSFSATAQLSEMKGLPPRGSASVSSRGVKRAVDTGECSAPLPLQKQRRVEAVASPPKAGRRLQREVAPSHRPCRDDSFSSPVNRAAMPATWAAALTRTDDPRTRLYSVRVSDSDCTGDGGGALPLPAGSLEAHWLPRHPRSLHRVLQAALPKRAAYGASTRHYCAGTGERGTGCTSVKNISMWHVAHVFRWLVLQPSQSGEVAFQTTSPKFDLPSYLRRFLSTDVDQCSRLDLRGAALRHTGYLEEAFRRQQQGVEPWDVQRLSTPVDVVVSYLRTLLPTLRWAPLKEANNGLFWGRDAAGSERVLDALMRAVRGWLIAGRQAVVPVSRFLDGVPVAQVPWLNGFYTTTPSLPFSDATSSASRHARRERSQVQQRVWLQFVLFLTQDILPFLLRASFTITWSSKNTHKLLFFPAFVWRRLVRREVRRTRSCHAPRSQMSLAEERTRMSGADHAALVSAPNACGGAVAAAFPSPHSAASNASAAISAPRDEWRAVRTGGALAHWSARATLATRGGGASCLYAGVRFRPDRRKLRPIAVVRSASLRSLKEMARGSPSPYSHASAIVRLLRRLGCSDADGQLPAATATLLRQVQARSRHNRRTGVHRSAHPLPPHLPHKAALQDALRCLVSGVEEQRVRDGLPRLSNLSHQDEYAELRSFCEEVRGRHAIPCEGPAKTTPAVSSASPPGATACFAPYVTLLRSDASRCYDNLPQGRVLAAVRSLVKHDAYRVLRFTVIHAVDSEATCKGGCLLRRTFTTRTIPCAEAECGFLARIPRGHIYWEEEGRTPTGPHTSAAVSRTTDASSRCGANLISGAAVRALLSEHIRHHLVVVSGGSLFEQRVGILQGSPVAMLLCDRLFSNVVDTALSSILSEHAERSLLLRRVDDVLVATTSPAAAERCLRAMQRGWPSVGYLSNPSKLTLSKACGSLVPWCGLLLHDTTLEVSVEWRRIGVLLGSLRVGDPHYVHRGDYEPLYLTQRFLAVLQLRVAPTALCGRMNSKTRQLQTFYEVGLLWTRVVLEKVQEALPVARNCCVTVLLLRPLAVCVGRLCRLLSRHQRFLAARQSACDVSAAEVRACVLTALHRTVQAKLRVLQARTVRAMTAQSGRTQRGPSLKGRRNNFCSTKASSVGRKGCEQRRRGRNRRNTRVCLRSFWWLTAAEVESQWRRSLGALYRAAPRPGEACGSTASSPSPAASASLLMEDGPLSMHARALSATRLSQT
For B1, the binding entry is given as “binds”.
